Record: PubChem BioAssay AID1053208 (Peter MacCallum Cancer Centre, 2014)

Aim: 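Genes whose silencing cuts survival of bone tumour cells only with doxorubicin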 (primary screen)
System: mouse osteosarcoma cells, early-passage culture from an engineered mouse model of fibroblastic bone tumour
Knock-down reagent: siRNA pool against mouse genes, 40 nM
Time to read-out: about 120 h (48 h before drug, then 72 h with drug)
Challenge: doxorubicin 100 nM for 72 h, roughly 30-40% inhibitory dose
Measured: 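Luminescent ATP signal taken as viability with or without 100 nM doxorubicin for 72 h; mean of two wells set against non-targeting siRNA and turned into robust z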
Direction: viability z-score with doxorubicin: higher = more viable cells under doxorubicin; viability z-score without drug: higher = more viable cells with knock-down alone
Hit rule: 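a pool counts as active when its viability z-score with doxorubicin is -2 or below and its z-score without drug lies between -2 and 2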
The whole screen tested about 17,000 reagents; shown is a random part of them. 788 of them (4.7%) count as active. 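Calls rest on z-score classes alone; an extra cut-off of viability at most 70% of control was not applied to them.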 The numbers tell different reagents against one gene apart. Not all columns of the deposit are shown.

How did the screen score Mtch2?
combined z-score class: no change with or without drug; viability z-score with doxorubicin: 0.9; viability z-score without drug: -0.17; call: inactive

With Frem2 (Fras1 related extracellular matrix protein 2), what does the deposit list?
combined z-score class: no change with or without drug; viability z-score with doxorubicin: 1.69; viability z-score without drug: 0.51; call: inactive

What is on record for Cyp2ab1 (cytochrome P450, family 2, subfamily ab, polypeptide 1)?
combined z-score class: no change with or without drug; viability z-score with doxorubicin: 0.9; viability z-score without drug: 1.85; call: inactive

What is on record for Gzmk (granzyme K)?
combined z-score class: no change with or without drug; viability z-score with doxorubicin: 0.11; viability z-score without drug: 1.18; call: inactive

With Tbc1d16 (TBC1 domain family, member 16), what was measured?
combined z-score class: high cell count with doxorubicin only; viability z-score with doxorubicin: 2.02; viability z-score without drug: 1.18; call: inactive

For Rem2 (rad and gem related GTP binding protein 2), what does the deposit list?
combined z-score class: no change with or without drug; viability z-score with doxorubicin: -1.01; viability z-score without drug: 0.34; call: inactive

With Mbnl3 (muscleblind like splicing factor 3), what does the deposit list?
combined z-score class: high cell count with doxorubicin only; viability z-score with doxorubicin: 2.02; viability z-score without drug: 1.52; call: inactive

What did the screen give for Trappc6a (trafficking protein particle complex 6A)?
combined z-score class: no change with or without drug; viability z-score with doxorubicin: -0.67; viability z-score without drug: 0.84; call: inactive

With D630044L22Rik (RIKEN cDNA gene D630044L22 gene), how do the results read?
combined z-score class: no change with or without drug; viability z-score with doxorubicin: 0; viability z-score without drug: -0.17; call: inactive

What did the screen give for Htr1f (5-hydroxytryptamine (serotonin) receptor 1F)?
combined z-score class: no change with or without drug; viability z-score with doxorubicin: 1.35; viability z-score without drug: -0.34; call: inactive

For Tc2n (tandem C2 domains, nuclear), what was measured?
combined z-score class: no change with or without drug; viability z-score with doxorubicin: -1.57; viability z-score without drug: -0.51; call: inactive

Which result is listed for Prorsd1 (prolyl-tRNA synthetase domain containing 1)?
combined z-score class: low cell count with doxorubicin only; viability z-score with doxorubicin: -2.7; viability z-score without drug: 0.17; call: active

For Gpbar1 (G protein-coupled bile acid receptor 1), what does the deposit list?
combined z-score class: no change with or without drug; viability z-score with doxorubicin: 0.22; viability z-score without drug: -1.52; call: inactive

What did the screen give for Myh11 (myosin, heavy polypeptide 11, smooth muscle)?
combined z-score class: no change with or without drug; viability z-score with doxorubicin: -0.22; viability z-score without drug: 1.18; call: inactive

How did the screen score Setd7 (SET domain containing (lysine methyltransferase) 7)?
combined z-score class: high cell count with and without drug; viability z-score with doxorubicin: 2.02; viability z-score without drug: 2.53; call: inactive

For Or5k3 (olfactory receptor family 5 subfamily K member 3), what does the deposit list?
combined z-score class: no change with or without drug; viability z-score with doxorubicin: -1.35; viability z-score without drug: -0.51; call: inactive

With Il6ra (interleukin 6 receptor, alpha), how do the results read?
combined z-score class: no change with or without drug; viability z-score with doxorubicin: -0.9; viability z-score without drug: 1.52; call: inactive

What did the screen give for Zfp772 (zinc finger protein 772)?
combined z-score class: no change with or without drug; viability z-score with doxorubicin: 0.11; viability z-score without drug: 0.84; call: inactive

Which result is listed for Ttn (titin) #1?
combined z-score class: no change with or without drug; viability z-score with doxorubicin: -1.24; viability z-score without drug: -0.17; call: inactive

What did the screen give for Ttn (titin) #2?
combined z-score class: no change with or without drug; viability z-score with doxorubicin: 1.35; viability z-score without drug: -0.17; call: inactive

How did the screen score Ivd (isovaleryl coenzyme A dehydrogenase)?
combined z-score class: no change with or without drug; viability z-score with doxorubicin: 0.67; viability z-score without drug: 1.85; call: inactive

With Psg28 (pregnancy-specific beta-1-glycoprotein 28), how do the results read?
combined z-score class: no change with or without drug; viability z-score with doxorubicin: 1.01; viability z-score without drug: 1.35; call: inactive

With Or8g2b (olfactory receptor family 8 subfamily G member 2B), what does the deposit list?
combined z-score class: no change with or without drug; viability z-score with doxorubicin: -1.35; viability z-score without drug: -0.51; call: inactive

For Or10ak14 (olfactory receptor family 10 subfamily AK member 14), what does the deposit list?
combined z-score class: no change with or without drug; viability z-score with doxorubicin: -0.9; viability z-score without drug: 0.34; call: inactive

What did the screen give for A630031M04Rik (RIKEN cDNA A630031M04 gene)?
combined z-score class: no change with or without drug; viability z-score with doxorubicin: -0.22; viability z-score without drug: -1.52; call: inactive

With Cep95 (centrosomal protein 95), what does the deposit list?
combined z-score class: no change with or without drug; viability z-score with doxorubicin: 0.22; viability z-score without drug: 0.84; call: inactive

Which result is listed for Ttc23 (tetratricopeptide repeat domain 23)?
combined z-score class: no change with or without drug; viability z-score with doxorubicin: 1.69; viability z-score without drug: 1.01; call: inactive

With Spsb2 (splA/ryanodine receptor domain and SOCS box containing 2), what was measured?
combined z-score class: no change with or without drug; viability z-score with doxorubicin: -0.9; viability z-score without drug: -0.84; call: inactive

4 entries from above in another layout:
gene knocked down	reagent no.	combined z-score class	viability z-score with doxorubicin	viability z-score without drug	call
Ttn (titin)	1	no change with or without drug	-1.24	-0.17	inactive
Ttn (titin)	2	no change with or without drug	1.35	-0.17	inactive
Ivd (isovaleryl coenzyme A dehydrogenase)	1	no change with or without drug	0.67	1.85	inactive
Psg28 (pregnancy-specific beta-1-glycoprotein 28)	1	no change with or without drug	1.01	1.35	inactive
